Article PMC5063989
Results are given in words; binding and its absence hold for the method and conditions named. Binding seen in cells or lysates may run through a third protein. Some entries that bind do so weakly or less than the wild type. Blank lines part the entries; values can stand above or below the molecule they belong to.

Chains of the proteins cited; added tags and fusions are not shown.
UniProt P63025: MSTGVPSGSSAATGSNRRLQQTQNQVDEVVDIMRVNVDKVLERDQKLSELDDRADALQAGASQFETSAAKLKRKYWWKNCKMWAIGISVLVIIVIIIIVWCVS

Columns and labels:
[1] = target: T1, Na+/K+/2Cl- co-transporter NKCC2 (rat (endogenous in TAL suspensions)) (UniProt P55016); assay: co-IP; endogenous NKCC2 immunoprecipitated from 200 ug of TAL lysate with rabbit IgG against NKCC2, overnight at 4 C, protein G/protein A agarose; buffer 100 mM NaCl, 50 mM HEPES pH 7.5, 5 mM EDTA, 1% Triton X-100, 1% CHAPS; washes incl. 500 mM Na+ HEPES; Western blot for NKCC2 and VAMP3
T1 sequence: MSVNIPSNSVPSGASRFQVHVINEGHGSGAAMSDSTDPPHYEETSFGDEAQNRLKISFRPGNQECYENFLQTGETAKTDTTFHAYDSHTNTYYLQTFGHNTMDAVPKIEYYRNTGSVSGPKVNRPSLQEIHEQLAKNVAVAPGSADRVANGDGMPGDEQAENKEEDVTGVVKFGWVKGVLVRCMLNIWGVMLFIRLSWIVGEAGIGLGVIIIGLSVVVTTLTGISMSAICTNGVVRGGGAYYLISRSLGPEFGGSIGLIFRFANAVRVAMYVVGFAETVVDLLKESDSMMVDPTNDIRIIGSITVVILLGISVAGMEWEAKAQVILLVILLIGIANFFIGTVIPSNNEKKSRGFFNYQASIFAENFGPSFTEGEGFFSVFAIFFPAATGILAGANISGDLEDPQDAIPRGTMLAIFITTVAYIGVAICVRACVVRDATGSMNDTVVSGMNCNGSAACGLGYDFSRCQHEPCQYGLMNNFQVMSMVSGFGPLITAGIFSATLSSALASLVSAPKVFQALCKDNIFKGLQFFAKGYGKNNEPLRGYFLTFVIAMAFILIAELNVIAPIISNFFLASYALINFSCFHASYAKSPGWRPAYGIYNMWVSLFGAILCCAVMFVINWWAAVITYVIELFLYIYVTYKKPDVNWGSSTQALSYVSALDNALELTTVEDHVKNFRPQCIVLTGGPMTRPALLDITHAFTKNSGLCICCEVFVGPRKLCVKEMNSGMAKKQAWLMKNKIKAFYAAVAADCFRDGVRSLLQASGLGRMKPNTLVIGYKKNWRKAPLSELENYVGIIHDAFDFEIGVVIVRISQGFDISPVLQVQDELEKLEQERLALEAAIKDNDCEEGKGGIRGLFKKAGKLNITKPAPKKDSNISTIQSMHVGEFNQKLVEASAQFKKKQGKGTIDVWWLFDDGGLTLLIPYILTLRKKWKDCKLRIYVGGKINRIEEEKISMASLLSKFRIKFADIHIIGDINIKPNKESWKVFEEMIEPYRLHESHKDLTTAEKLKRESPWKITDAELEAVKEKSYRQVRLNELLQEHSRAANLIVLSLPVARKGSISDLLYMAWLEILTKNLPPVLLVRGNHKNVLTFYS

[2] = target: Vesicle-associated membrane protein 3 (VAMP3) (rat (endogenous in TAL suspensions)) (UniProt P63025); assay: co-IP; reciprocal: endogenous VAMP3 immunoprecipitated from 100 ug of TAL lysate with 5 ug rabbit IgG against VAMP3; Western blot for NKCC2 and VAMP3 with rabbit antibodies

binding [1]: binds
Molecule: Vesicle-associated membrane protein 3 (VAMP3) (from UniProt P63025 1-103)

binding [2]: binds
B1: Na+/K+/2Cl- co-transporter NKCC2 (protein, UniProt P55016 1-1095)
chain: T1 sequence
